We go through 52 compounds from the supplement of paper PMC4840960.

Structures can show the parent of a compound that is named as a salt. ± gives the standard deviation of the averaged measurements. The list shows a part of the results. Plates or batches differ in their baseline, so values are only roughly comparable. Some results are limits rather than exact numbers.

In this assay the test system is E18 rat cortical neuron-glia co-culture. Nature of the assay: total nuclei (DAPI) / Olig2+ nuclei (ratio); higher = more depletion of OPC/OL lineage cells. Conditions: treatment time: 8 days (DIV5-DIV13).

Turning to `CC1(C)S[C@@H]2[C@H](NC(=O)COc3ccccc3)C(=O)N2[C@H]1C(=O)O` [Penicillin V], the total nuclei is 4.1 (1 µM) and 4.3 (5 µM).
In the case of `CCCCNC(=O)NS(=O)(=O)c1ccc(C)cc1` [Tolbutamide], the total nuclei (1 µM) was 2.9 and the total nuclei (5 µM) was 2.7.
Regarding `CCCOc1ccc(C(=O)OCCN(CC)CC)cc1N` [Proxymetacaine], the total nuclei was 2.73 (1 µM) and 3.2 (5 µM).
`CC(C)NCC(O)COc1ccc(CC(N)=O)cc1` (centres undefined) [Atenolol]: the total nuclei is, setting by setting: (1 µM) 2.89; (5 µM) 2.8.
The matching figures for `c1ccc2c(CC3=NCCN3)cccc2c1` [Naphazoline]: 4.59 and 4.3.
With `CC(=O)O[C@]1(C(C)=O)CC[C@H]2[C@@H]3C=C(C)C4=CC(=O)CC[C@]4(C)[C@H]3CC[C@@]21C` [Megestrol acetate], the total nuclei reads like this: (1 µM) 3.84; (5 µM) 3.9.
The matching figures for `CC(C)(C(=O)c1cccnc1)c1cccnc1` [Metyrapone]: 3.3 and 3.6.
In the case of `Nc1ncn([C@@H]2O[C@H](CO)[C@@H](O)[C@H]2O)c(=O)n1` [Azacitidine], the total nuclei (1 µM) was 2.52 and the total nuclei (5 µM) stood at 2.8.
`CC(C)C[C@H](NC(=O)[C@@H](COC(C)(C)C)NC(=O)[C@H](Cc1ccc(O)cc1)NC(=O)[C@H](CO)NC(=O)[C@H](Cc1c[nH]c2ccccc12)NC(=O)[C@H](Cc1cnc[nH]1)NC(=O)[C@@H]1CCC(=O)N1)C(=O)N[C@@H](CCCNC(=N)N)C(=O)N1CCC[C@H]1C(=O)NNC(N)=O` [Goserelin]: the total nuclei is 2.75 (1 µM) and 2.8 (5 µM).
In the case of `Nc1nc(F)nc2c1ncn2[C@@H]1O[C@H](CO)[C@@H](O)[C@@H]1O` [Fludarabine], the total nuclei amounted to 2.4 (1 µM) and 3.8 (5 µM).
On to `O=C1CN(/N=C/c2ccc(-c3ccc([N+](=O)[O-])cc3)o2)C(=O)N1` [Dantrolene sodium salt dihydrate], for which the total nuclei was 5.61 (1 µM) and 4.5 (5 µM).
On to `CCN(CC)CCNC(=O)c1ccc(N)cc1` [Procainamide], for which the total nuclei runs as follows: (1 µM) 2.7; (5 µM) 2.8.
Consider `O=C(CCCN1CCC(O)(c2ccc(Cl)cc2)CC1)c1ccc(F)cc1` [Haloperidol], for which the total nuclei reads like this: (1 µM) 2.9; (5 µM) 2.9.
As to `CCOC(=O)C1=C(COCCN)NC(C)=C(C(=O)OC)C1c1ccccc1Cl` (centres undefined) [Amlodipine], the total nuclei is 4.85 (1 µM) and more than 40 (5 µM).
In the case of `CC[C@@]1(O)C(=O)OCc2c1cc1n(c2=O)Cc2cc3c(CN(C)C)c(O)ccc3nc2-1` [Topotecan], the total nuclei is, setting by setting: (1 µM) more than 40; (5 µM) more than 40.
As to `Oc1ncnc2[nH]ncc12` [Allopurinol], the total nuclei (1 µM) worked out at 4.22 and the total nuclei (5 µM) was determined as 4.2.
In the case of `CC(=O)NS(=O)(=O)c1ccc(N)cc1` [Sulfacetamide], the total nuclei (1 µM) worked out at 2.76 and the total nuclei (5 µM) was determined as 2.9.
The matching figures for `COc1ccc(Cl)cc1C(=O)NCCc1ccc(S(=O)(=O)NC(=O)NC2CCCCC2)cc1` [Glyburide]: 2.85 and 2.8.
`CCc1c(C)[nH]c2c1C(=O)C(CN1CCOCC1)CC2` (centres undefined) [Molindone]: the total nuclei came out at 2.61 (1 µM) and 2.5 (5 µM).
In the case of `CCS(=O)(=O)CCn1c([N+](=O)[O-])cnc1C` [Tinidazole], the total nuclei was determined as 2.8 (1 µM) and 2.8 (5 µM).
For the compound `Fc1cncnc1` [5-fluoropyrimidine], the total nuclei by setting is: (1 µM) 2.73; (5 µM) 2.6.
As to `CC(=O)OCC(=O)[C@@]12OC(C)(C)O[C@@H]1C[C@H]1[C@@H]3C[C@H](F)C4=CC(=O)C=C[C@]4(C)[C@@]3(F)[C@@H](O)C[C@@]12C` [Fluocinonide], the total nuclei (1 µM) turned out to be 2.9 and the total nuclei (5 µM) amounted to 11.6.
The matching figures for `CN(CCO)CC(O)Cn1cnc2c1c(=O)n(C)c(=O)n2C` (centres undefined) [Jupal]: 2.8 and 2.9.
`CC(C)[C@H](N)C(=O)OCCOCn1cnc2c(=O)nc(N)[nH]c21` [Valaciclovir]: the total nuclei (1 µM) was 3.41 and the total nuclei (5 µM) is 3.8.
In the case of `COC(=O)C1=C(C)NC(C)=C(C(=O)OC)C1c1ccccc1[N+](=O)[O-]` [Nifedipine], the total nuclei was found to be 4.01 (1 µM) and 7.7 (5 µM).
The matching figures for `CC(=O)[C@H]1CC[C@H]2[C@@H]3C[C@H](C)C4=CC(=O)CC[C@]4(C)[C@H]3[C@@H](O)C[C@]12C` [Medrysone]: 2.83 and 2.8.
For `CCCC(=O)Nc1ccc(OCC(O)CNC(C)C)c(C(C)=O)c1` (centres undefined) [Acebutolol], the total nuclei by setting is: (1 µM) 2.89; (5 µM) 2.8.
Consider `CC(C)(C)NCC(O)c1ccc(O)c(CO)c1` (centres undefined) [Albuterol], for which the total nuclei was determined as 4.2 (1 µM) and 4.9 (5 µM).
Consider `CC(=O)[C@]1(O)Cc2c(O)c3c(c(O)c2[C@@H](O[C@H]2C[C@H](N)[C@H](O)[C@H](C)O2)C1)C(=O)c1ccccc1C3=O` [Idarubicin], for which the total nuclei (1 µM) was more than 40 and the total nuclei (5 µM) is more than 40.
In the case of `Cc1ccnc2c1NC(=O)c1cccnc1N2C1CC1` [Nevirapine], the total nuclei (1 µM) came out at 2.8 and the total nuclei (5 µM) stood at 3.1.
As to `N=C(N)N` [Guanidine], the total nuclei (1 µM) worked out at 2.88 and the total nuclei (5 µM) was found to be 2.8.
As for `C[C@@H]1C[C@H]2[C@@H]3C[C@H](F)C4=CC(=O)C=C[C@]4(C)[C@@]3(F)[C@@H](O)C[C@]2(C)[C@@]1(O)C(=O)SCF` [Fluticasone], the total nuclei is 4.78 (1 µM) and 5.8 (5 µM).
Take `C[N+]1(C)CCC(OC(=O)C(O)(c2ccccc2)C2CCCC2)C1` (centres undefined) [Glycopyrrolate]: the total nuclei is 3.17 ± 0.69 (1 µM) and 3.6 ± 1.1 (5 µM).
Regarding `CC(C)c1ccc2c(c1)c(SC(C)(C)C)c(CC(C)(C)C(=O)O)n2Cc1ccc(Cl)cc1`, the total nuclei (1 µM) worked out at 2.73 and the total nuclei (5 µM) is 39.9.
Regarding `O=C(NCCO[N+](=O)[O-])c1cccnc1` [Nicorandil], the total nuclei (1 µM) was 2.91 and the total nuclei (5 µM) turned out to be 2.9.
Turning to `Cn1ccnc1S` [Methimazole], the total nuclei was determined as 4.16 (1 µM) and 4 (5 µM).
On to `Cc1ncc([N+](=O)[O-])n1CCO` [Metronidazole], for which the total nuclei (1 µM) is 3.46 and the total nuclei (5 µM) turned out to be 3.3.
As for `CC(C(=O)O)c1cccc(C(=O)c2ccccc2)c1` (centres undefined) [Ketoprofen], the total nuclei reads like this: (1 µM) 4.1; (5 µM) 4.
As for `CC(C)(C)NC(=O)[C@H]1CC[C@H]2[C@@H]3CC[C@H]4NC(=O)C=C[C@]4(C)[C@H]3CC[C@]12C` [Finasteride], the total nuclei stood at 2.9 (1 µM) and 3 (5 µM).
Take `CCN1CCCC1CNC(=O)c1cc(S(N)(=O)=O)ccc1OC` (centres undefined) [Sulpiride]: the total nuclei reads like this: (1 µM) 3.5; (5 µM) 4.
As for `Cc1ccc(N(CC2=NCCN2)c2cccc(O)c2)cc1` [Phentolamine], the total nuclei by setting is: (1 µM) 2.65; (5 µM) 2.3.
As to `COc1ccc(CC(C)NCC(O)c2ccc(O)c(NC=O)c2)cc1` (centres undefined) [Formoterol], the total nuclei is, setting by setting: (1 µM) 2.62; (5 µM) 2.5.
Consider `CC(C)[N+](C)(CCOC(=O)C1c2ccccc2Oc2ccccc21)C(C)C` [Propantheline], for which the total nuclei stood at 2.87 (1 µM) and 3.1 (5 µM).
Consider `CN1CCN(CCCN2c3ccccc3Sc3ccc(C(F)(F)F)cc32)CC1` [Trifluoperazine], for which the total nuclei is 4.72 (1 µM) and more than 40 (5 µM).
In the case of `C[C@H]1C[C@H]2[C@@H]3CCC4=CC(=O)C=C[C@]4(C)[C@@]3(Cl)[C@@H](O)C[C@]2(C)[C@@]1(O)C(=O)CO` [Beclomethasone], the total nuclei runs as follows: (1 µM) 2.73 ± 0.23; (5 µM) 2.55 ± 0.49.
As for `NCC(=O)CCC(=O)O` [Aminolevulinic Acid], the total nuclei by setting is: (1 µM) 2.91; (5 µM) 4.
For the compound `CC1(C)O[C@@H]2C[C@H]3[C@@H]4C[C@H](F)C5=CC(=O)C=C[C@]5(C)[C@@]4(F)[C@@H](O)C[C@]3(C)[C@]2(C(=O)CO)O1` [Fluocinolone Acetonide], the total nuclei was found to be 3.34 (1 µM) and 3.5 (5 µM).
The matching figures for `OC(c1cc(C(F)(F)F)nc2c(C(F)(F)F)cccc12)C1CCCCN1` (centres undefined) [Mefloquine]: 3.46 and 3.6.
The matching figures for `Nc1ccn([C@H]2CC[C@@H](CO)O2)c(=O)n1` [Zalcitabine]: 2.8 and 2.7.
The matching figures for `NC12CC3CC(CC(C3)C1)C2` [Amantadine]: 3.53 and 4.1.
As to `O=C1CC2(CCCC2)CC(=O)N1CCNCC1COc2ccccc2O1` (centres undefined) [Binospirone], the total nuclei (1 µM) is 4.1 and the total nuclei (5 µM) was 4.
Turning to `Cc1ccc(NC(=O)c2ccc(CN3CCN(C)CC3)cc2)cc1Nc1nccc(-c2cccnc2)n1` [Imatinib mesylate], the total nuclei came to 6 (1 µM) and 6.6 (5 µM).
